The test system of one data set is UGT1A3. The following applies: human liver microsomes, only heterozygotic carriers.
Data set [1] relates to cytochrome P450 CYP3A subfamily (CYP3A4 and CYP3A5). The following applies: recombinantly expressed CYP enzymes.

In the case of `CC(C)c1c(C(=O)Nc2ccccc2)c(-c2ccccc2)c(-c2ccc(F)cc2)n1CC[C@@H](O)C[C@@H](O)CC(=O)O` [atorvastatin], the “lactone formation in carriers of UGT1A3*3 and *6 haplotypes” value with UGT1A3 is given as “no increased lactone formation”. Further, the “P450 enzymes catalyzing ATV hydroxylation” value in data set [1] is listed as “the only relevant P450 enzymes which catalyze the ATV hydroxylation”.

The record behind these values is US9528156B2, “Method for determining the predisposition of a patient to changed biotransformation and to the development of undesired drug effects in a treatment of the patient with atrovastatin” (Robert Bosch GmbH, priority 2009, dated 2016).
